Data reported in article PMC7956269.
No constants are given. Whether binding was seen depends on the method and setting. In cells and extracts the contact can be indirect. Here binding means that the protein was enriched with, or labelled near, the bait; the list need not be complete. One block for each binder: values may come before it.

Biological target: Biotin-FOXC1 (mouse) (UniProt Q61572)
Experiment: affinity purification with mass spectrometry; streptavidin-agarose precipitation of biotinylated FOXC1 from nuclear extract of stable HEK293T cells (293T-Biotin-FOXC1); IP350 buffer (350 mM NaCl, 20 mM Tris-HCl pH 7.5, 0.5% NP40, 1 mM EDTA, 10% glycerin); SDS-PAGE, LC-ESI-MS/MS; proteins of the 293T-Biotin control deducted

binding: binds
B1: Clybl (protein, UniProt Q8N0X4 23-340)
chain: ASLAADIPRLGYSSSSHHKYIPRRAVLYVPGNDEKKIKKIPSLNVDCAVLDCEDGVAANKKNEARLRIVKTLEDIDLGPTEKCVRVNSVSSGLAEEDLETLLQSRVLPSSLMLPKVESPEEIQWFADKFSFHLKGRKLEQPMNLIPFVETAMGLLNFKAVCEETLKVGPQVGLFLDAVVFGGEDFRASIGATSSKETLDILYARQKIVVIAKAFGLQAIDLVYIDFRDGAGLLRQSREGAAMGFTGKQVIHPNQIAVVQEQFSPSPEKIKWAEELIAAFKEHQQLGKGAFTFQGSMIDMPLLKQAQNTVTLATSIKEK

binding: binds
B2: Hells (protein, UniProt Q9NRZ9 1-838)
chain: MPAERPAGSGGSEAPAMVEQLDTAVITPAMLEEEEQLEAAGLERERKMLEKARMSWDRESTEIRYRRLQHLLEKSNIYSKFLLTKMEQQQLEEQKKKEKLERKKESLKVKKGKNSIDASEEKPVMRKKRGREDESYNISEVMSKEEILSVAKKNKKENEDENSSSTNLCVEDLQKNKDSNSIIKDRLSETVRQNTKFFFDPVRKCNGQPVPFQQPKHFTGGVMRWYQVEGMEWLRMLWENGINGILADEMGLGKTVQCIATIALMIQRGVPGPFLVCGPLSTLPNWMAEFKRFTPDIPTMLYHGTQEERQKLVRNIYKRKGTLQIHPVVITSFEIAMRDRNALQHCYWKYLIVDEGHRIKNMKCRLIRELKRFNADNKLLLTGTPLQNNLSELWSLLNFLLPDVFDDLKSFESWFDITSLSETAEDIIAKEREQNVLHMLHQILTPFLLRRLKSDVALEVPPKREVVVYAPLSKKQEIFYTAIVNRTIANMFGSSEKETIELSPTGRPKRRTRKSINYSKIDDFPNELEKLISQIQPEVDRERAVVEVNIPVESEVNLKLQNIMMLLRKCCNHPYLIEYPIDPVTQEFKIDEELVTNSGKFLILDRMLPELKKRGHKVLLFSQMTSMLDILMDYCHLRDFNFSRLDGSMSYSEREKNMHSFNTDPEVFIFLVSTRAGGLGINLTAADTVIIYDSDWNPQSDLQAQDRCHRIGQTKPVVVYRLVTANTIDQKIVERAAAKRKLEKLIIHKNHFKGGQSGLNLSKNFLDPKELMELLKSRDYEREIKGSREKVISDKDLELLLDRSDLIDQMNASGPIKEKMGIFKILENSEDSSPECLF
